PubChem BioAssay AID504774 – Drosophila RNAi Screening Center – 2011
In all, the deposit lists about 23,000 reagents; below is a random part of those with a known target gene and a result. 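Values are quantile-normalised luminescence on an arbitrary scale; higher means more cells surviving MMS.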 Further read-outs or replicates are left out here. Reagent sequences are not shown.

Test: 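Genes required for cells to withstand methyl methanesulphonate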 (primary screen)
Cell system: Drosophila Kc167 cells
Reagent: long dsRNA against Drosophila genes, about 0.25 µg dsRNA per well
Time to read-out: about 6 days: 3 days knock-down, then 3 days with or without MMS
Challenge: methyl methanesulphonate 0.004% (w/v) for 3 days after knock-down
Measurement: 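Viability in wells given MMS, read as ATP luminescence, normalised by quantiles plate by plate and averaged across replicates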
Reading the numbers: mean viability with MMS and viability with MMS: higher = more surviving cells after MMS

Against CG15715 [DRSC10216], the values are mean viability with MMS 3.49e6; viability with MMS, replicate 1 = 4.00e6.
Against tun [DRSC05592], the values are mean viability with MMS 3.47e6; viability with MMS, replicate 1 = 3.97e6.
Against tun [DRSC07127], the entry reads mean viability with MMS 3.67e6; viability with MMS, replicate 1 = 4.19e6.
For CCT8 [DRSC07130] the deposit lists mean viability with MMS 3.22e6; viability with MMS, replicate 1 = 3.69e6.
With knock-down of apn [DRSC15124], the screen gave mean viability with MMS 3.53e6; viability with MMS, replicate 1 = 3.90e6.
Tab2 [DRSC07481] scored mean viability with MMS 3.51e6; viability with MMS, replicate 1 = 3.91e6.
Against nonA [DRSC20357], the entry reads mean viability with MMS 3.63e6; viability with MMS, replicate 1 = 4.02e6.
Alp6 [DRSC06710] gave mean viability with MMS 3.56e6; viability with MMS, replicate 1 = 4.08e6.
Peritrophin-15a [DRSC02636] gave mean viability with MMS 3.59e6; viability with MMS, replicate 1 = 4.15e6.
For Eig71Eb [DRSC11149], the entry reads mean viability with MMS 3.75e6; viability with MMS, replicate 1 = 4.22e6.
Cht4 [DRSC04603] scored mean viability with MMS 3.38e6; viability with MMS, replicate 1 = 3.81e6.
CCT3 [DRSC16602] showed mean viability with MMS 3.41e6; viability with MMS, replicate 1 = 3.87e6.
Depletion of Muc68D [DRSC10569] gave: mean viability with MMS 3.59e6; viability with MMS, replicate 1 = 4.08e6.
Depletion of CG8539 [DRSC10988] gave: mean viability with MMS 3.60e6; viability with MMS, replicate 1 = 4.06e6.
With knock-down of CG8539 [DRSC21798], the screen gave mean viability with MMS 3.36e6; viability with MMS, replicate 1 = 3.91e6.
ush [DRSC00843] showed mean viability with MMS 3.79e6; viability with MMS, replicate 1 = 4.43e6.
CG31199 [DRSC15284] gave mean viability with MMS 3.60e6; viability with MMS, replicate 1 = 4.12e6.
After knock-down of Flacc [DRSC20040] the results were mean viability with MMS 3.76e6; viability with MMS, replicate 1 = 4.39e6.
After knock-down of Fur2 [DRSC19817], the record shows mean viability with MMS 3.48e6; viability with MMS, replicate 1 = 4.00e6.
For CG13722 [DRSC08331], the values are mean viability with MMS 3.71e6; viability with MMS, replicate 1 = 4.17e6.
CG13722 [DRSC21616] showed mean viability with MMS 3.60e6; viability with MMS, replicate 1 = 4.00e6.
MED27 [DRSC12205] gave mean viability with MMS 3.27e6; viability with MMS, replicate 1 = 3.79e6.
Depletion of Dhx15 [DRSC06036] gave: mean viability with MMS 3.47e6; viability with MMS, replicate 1 = 3.92e6.
pths [DRSC03171] showed mean viability with MMS 3.34e6; viability with MMS, replicate 1 = 3.78e6.
Silencing of CG30083 [DRSC05572] resulted in: mean viability with MMS 3.49e6; viability with MMS, replicate 1 = 4.02e6.
Silencing of SCaMC [DRSC10293] came out at: mean viability with MMS 3.35e6; viability with MMS, replicate 1 = 3.85e6.
Knock-down of SCaMC [DRSC10415] came out at: mean viability with MMS 3.28e6; viability with MMS, replicate 1 = 3.78e6.
Against clt [DRSC04621], the entry reads mean viability with MMS 3.64e6; viability with MMS, replicate 1 = 4.08e6.
Depletion of CG33170 [DRSC11854] resulted in: mean viability with MMS 3.60e6; viability with MMS, replicate 1 = 4.10e6.
For CG33170 [DRSC22366], the values are mean viability with MMS 3.75e6; viability with MMS, replicate 1 = 4.09e6.
With knock-down of CG18609 [DRSC06775], the record shows mean viability with MMS 3.64e6; viability with MMS, replicate 1 = 4.08e6.
Depletion of CG6738 [DRSC16104] came out at: mean viability with MMS 3.64e6; viability with MMS, replicate 1 = 4.26e6.
With knock-down of CG12986 [DRSC19506], the screen gave mean viability with MMS 3.61e6; viability with MMS, replicate 1 = 4.12e6.
Knock-down of fd59A [DRSC04685] gave: mean viability with MMS 3.51e6; viability with MMS, replicate 1 = 3.98e6.
Depletion of P5CS [DRSC11831] came out at: mean viability with MMS 3.62e6; viability with MMS, replicate 1 = 4.08e6.
After knock-down of P5CS [DRSC11832], the record shows mean viability with MMS 3.60e6; viability with MMS, replicate 1 = 4.06e6.
Against Or82a [DRSC11996] the deposit lists mean viability with MMS 3.55e6; viability with MMS, replicate 1 = 4.10e6.
With knock-down of Tmtc1 [DRSC00147], the record shows mean viability with MMS 3.58e6; viability with MMS, replicate 1 = 3.96e6.
Silencing of Tmtc1 [DRSC00151] gave: mean viability with MMS 3.49e6; viability with MMS, replicate 1 = 3.95e6.
Against Tmtc1 [DRSC00314], the values are mean viability with MMS 3.54e6; viability with MMS, replicate 1 = 4.03e6.
For Tmtc1 [DRSC00411], the values are mean viability with MMS 3.45e6; viability with MMS, replicate 1 = 3.92e6.
With knock-down of Tdc1 [DRSC04942], the screen gave mean viability with MMS 3.42e6; viability with MMS, replicate 1 = 3.98e6.
After knock-down of Ptp61F [DRSC08683] the results were mean viability with MMS 3.65e6; viability with MMS, replicate 1 = 4.18e6.
Silencing of CG13192 [DRSC06317] resulted in: mean viability with MMS 3.47e6; viability with MMS, replicate 1 = 3.89e6.
For CG4619 [DRSC02764], the values are mean viability with MMS 3.70e6; viability with MMS, replicate 1 = 4.42e6.

Sorted by “mean viability with MMS” (high to low): 7 of the entries above.
ush [DRSC00843]: mean viability with MMS = 3.79e6; viability with MMS, replicate 1 = 4.43e6
Flacc [DRSC20040]: mean viability with MMS = 3.76e6; viability with MMS, replicate 1 = 4.39e6
CG8539 [DRSC10988]: mean viability with MMS = 3.60e6; viability with MMS, replicate 1 = 4.06e6
CG31199 [DRSC15284]: mean viability with MMS = 3.60e6; viability with MMS, replicate 1 = 4.12e6
Muc68D [DRSC10569]: mean viability with MMS = 3.59e6; viability with MMS, replicate 1 = 4.08e6
CCT3 [DRSC16602]: mean viability with MMS = 3.41e6; viability with MMS, replicate 1 = 3.87e6
CG8539 [DRSC21798]: mean viability with MMS = 3.36e6; viability with MMS, replicate 1 = 3.91e6
